Here are results for 1 compound from patent US11414436B2, “Non-coordinating anion type activators containing cation having large alkyl groups” (ExxonMobil Chemical Patents Inc., priority 2018, dated 2022).

The structures appear in SMILES notation. “And” between values parts separate entries of the source, which are not always exact repeats. Equal values may be shown once.

This data set is described as follows: Rapid GPC of polymer product (Mw, Mn, PDI). The note with it: polypropylene, MCN-1, 85° C.
[1] abbreviates: Activator Equiv 1.0, TNOAL 0.25 umol.
Setting [2] is: Activator Equiv 1.0, TNOAL 0.50 umol.
Setting [3] is: Activator Equiv 1.0, TNOAL 0.75 umol.
Where [4] appears, read: Activator Equiv 1.2, TNOAL 0.25 umol.
Setting [5] is: Activator Equiv 1.2, TNOAL 0.50 umol.
Setting [6] is: Activator Equiv 1.2, TNOAL 0.75 umol.
Setting [7] is: Activator Equiv 1.4, TNOAL 0.25 umol.
Where [8] appears, read: Activator Equiv 1.4, TNOAL 0.50 umol.
[9] abbreviates: Activator Equiv 1.4, TNOAL 0.75 umol.
Setting [10] is: Activator Equiv 1.6, TNOAL 0.25 umol.
Setting [11] is: Activator Equiv 1.6, TNOAL 0.50 umol.
The mark [12] stands for this setting: Activator Equiv 1.6, TNOAL 0.75 umol.

Regarding `CCCCCCCCCCCCCCCCCC[NH+](CCCCCCCCCCCCCCCCCC)c1ccc(C)cc1.Fc1c(F)c(F)c2c(F)c([B-](c3c(F)c(F)c4c(F)c(F)c(F)c(F)c4c3F)(c3c(F)c(F)c4c(F)c(F)c(F)c(F)c4c3F)c3c(F)c(F)c4c(F)c(F)c(F)c(F)c4c3F)c(F)c(F)c2c1F` [DOdTH-BF28, 4-methyl-N,N-dioctadecylbenzenaminium-BF28], the “Mn (g/mol)” value is 83,444 g/mol and 87,492 g/mol and 103,537 g/mol under setting [1]; 110,353 g/mol and 114,822 g/mol and 119,524 g/mol under setting [2]; 143,333 g/mol and 121,586 g/mol and 126,136 g/mol under setting [3]; 95,218 g/mol and 104,639 g/mol and 109,235 g/mol under setting [4]; 94,722 g/mol and 108,882 g/mol and 107,193 g/mol under setting [5]; 118,996 g/mol and 112,323 g/mol and 114,309 g/mol under setting [6]. The “Mn (g/mol)” value by setting is: under setting [7], 98,035 g/mol and 94,337 g/mol and 107,426 g/mol; under setting [8], 123,022 g/mol and 95,683 g/mol and 125,870 g/mol; under setting [9], 127,814 g/mol and 117,540 g/mol and 122,219 g/mol; under setting [10], 101,216 g/mol and 89,708 g/mol; under setting [11], 108,279 g/mol and 118,888 g/mol and 131,023 g/mol; under setting [12], 107,663 g/mol and 126,310 g/mol and 126,062 g/mol. Also, the “Mw (g/mol)” value was 188,839 g/mol and 154,334 g/mol and 173,588 g/mol under setting [1]; 190,969 g/mol and 196,386 g/mol and 208,080 g/mol under setting [2]; 226,642 g/mol and 211,247 g/mol and 230,616 g/mol under setting [3]; 176,664 g/mol and 187,424 g/mol and 174,900 g/mol under setting [4]; 173,395 g/mol and 195,598 g/mol and 200,253 g/mol under setting [5]; 203,343 g/mol and 210,208 g/mol and 206,059 g/mol under setting [6]. Further, the “Mw (g/mol)” value by setting is: under setting [7], 167,636 g/mol and 174,709 g/mol and 191,143 g/mol; under setting [8], 196,454 g/mol and 174,763 g/mol and 205,013 g/mol; under setting [9], 214,283 g/mol and 224,513 g/mol and 206,568 g/mol; under setting [10], 168,522 g/mol and 169,691 g/mol; under setting [11], 183,663 g/mol and 206,818 g/mol and 205,178 g/mol; under setting [12], 188,187 g/mol and 213,453 g/mol and 213,401 g/mol.
